The source of these data is patent publication US20130330334A1.

Results are given in words; binding and its absence hold for the method and conditions named. Some entries that bind do so weakly or less than the wild type.

The target in assay [1] is human CD4 (coated on ELISA plate) (human) (UniProt P01730). Description: competition ELISA, plate-coated human CD4.
Assay [2] has the same target. In words: competition ELISA, plate-coated CD4.

B1: modified anti-CD4 antibody VH1/VK1 (antibody, V domains shown)
VH: EVQLQQSGSELKRPGASVKVSCKASGYTFANYWMHWVRQAPGQGLQWIGALYPGNVDTTYNQKFKDKAKITRDTSASTAYMELSSLTNEDTAVYYCTRMGTTLEAPLDYWGQGTLVTVSS
VL: QIVLTQSPATLSASPGEKAAMTCSARSSVSYLYWYQQKPGSSPRALIYDTSNLASGVPSRFSGSGSGTDYSLTISSMEAEDAATYYCQQWSDYPLTFGAGTKLEIK
B1: the binding result in assay [1] is “binds”.

B2: modified anti-CD4 antibody VH3/VK4 (antibody, V domains shown)
VH: EVQLQQSGSELKRPGASVKMSCKASGYTFANYWMHWVKQAPGQGLQWIGALYPGNVDTTYNQKFKDKAKLTAVTSASTAYMELSSLTNEDTAVYYCTRMGTTLEAPLDYWGQGTLVTVSS
VL: QIVLTQSPAILSASPGEKAAMTCSARSSVSYLYWYQQKPGSSPRLLIYDTSNLASGVPSRFIGSGSGTDYSLTISSMEAEDAATYYCQQWSDYPLTFGAGTKLEIK
Consider B2, for which, in assay [1], the binding result is recorded as “binds”.

B3: modified anti-CD4 antibody VH2/VK2 (antibody, V domains shown)
VH: EVQLQQSGSELKRPGASVKVSCKASGYTFANYWMHWVKQAPGQGLQWIGALYPGNVDTTYNQKFKDKAKLTADTSASTAYMELSSLTNEDTAVYYCTRMGTTLEAPLDYWGQGTLVTVSS
VL: QIVLTQSPATLSASPGEKAAMTCSARSSVSYLYWYQQKPGSSPRLLIYDTSNLASGVPSRFSGSGSGTDYSLTISSMEAEDAATYYCQQWSDYPLTFGAGTKLEIK
On to B3, for which the binding result in assay [1] is recorded as “binds”.

B4: chimeric anti human CD4-antibody (chimeric IgG4) (antibody, V domains shown)
VH: EVQLQQSGTVLARPGASVQMSCKASGYSFANYWMHWVKQRPGQGLQWIGALYPGNVDTTYNQKFKDKAKLTAVTSASTAYMELSSLTNEDSAVYYCTRMGTTLEAPLDYWGQGTTLTVSS
VL: QIVLTQSPAIMSASPGEKVAMTCSARSSVSYLYWYQQKPGSSPRLLIYDTSNLASGVPVRFIGSGSGTSYSLTISRMEAEDAATYYCQQWSDYPLTFGAGTKLELK
Regarding B4, in assay [2], the binding result is reported as “binds”.

B5: monoclonal mouse anti human CD4-antibody 30F16H5 (antibody, mouse IgG1, V domains shown)
VH: EVQLQQSGTVLARPGASVQMSCKASGYSFANYWMHWVKQRPGQGLQWIGALYPGNVDTTYNQKFKDKAKLTAVTSASTAYMELSSLTNEDSAVYYCTRMGTTLEAPLDYWGQGTTLTVSS
VL: QIVLTQSPAIMSASPGEKVAMTCSARSSVSYLYWYQQKPGSSPRLLIYDTSNLASGVPVRFIGSGSGTSYSLTISRMEAEDAATYYCQQWSDYPLTFGAGTKLELK
Regarding B5, the binding result in assay [2] is “binds”.

B6: modified anti-CD4 antibody VH4/VK2 (antibody, V domains shown)
VH: EVQLQQSGTELKRPGASVKMSCKASGYTFANYWMHWVKQAPGQGLQWIGALYPGNVDTTYNQKFKDKAKLTAVTSASTAYMELSSLTNEDSAVYYCTRMGTTLEAPLDYWGQGTTVTVSS
VL: QIVLTQSPATLSASPGEKAAMTCSARSSVSYLYWYQQKPGSSPRLLIYDTSNLASGVPSRFSGSGSGTDYSLTISSMEAEDAATYYCQQWSDYPLTFGAGTKLEIK
Regarding B6, the binding entry in assay [1] is reported as “binds”.

B7: modified anti-CD4 antibody VH3/VK2 (antibody, V domains shown)
VH: EVQLQQSGSELKRPGASVKMSCKASGYTFANYWMHWVKQAPGQGLQWIGALYPGNVDTTYNQKFKDKAKLTAVTSASTAYMELSSLTNEDTAVYYCTRMGTTLEAPLDYWGQGTLVTVSS
VL: QIVLTQSPATLSASPGEKAAMTCSARSSVSYLYWYQQKPGSSPRLLIYDTSNLASGVPSRFSGSGSGTDYSLTISSMEAEDAATYYCQQWSDYPLTFGAGTKLEIK
For the molecule B7, in assay [1], the binding entry is recorded as “binds”.

B8: modified anti-CD4 antibody VH2/VK4 (antibody, V domains shown)
VH: EVQLQQSGSELKRPGASVKVSCKASGYTFANYWMHWVKQAPGQGLQWIGALYPGNVDTTYNQKFKDKAKLTADTSASTAYMELSSLTNEDTAVYYCTRMGTTLEAPLDYWGQGTLVTVSS
VL: QIVLTQSPAILSASPGEKAAMTCSARSSVSYLYWYQQKPGSSPRLLIYDTSNLASGVPSRFIGSGSGTDYSLTISSMEAEDAATYYCQQWSDYPLTFGAGTKLEIK
Regarding B8, the binding entry in assay [1] is listed as “binds”.

B9: modified anti-CD4 antibody VH4/VK4 (antibody, V domains shown)
VH: EVQLQQSGTELKRPGASVKMSCKASGYTFANYWMHWVKQAPGQGLQWIGALYPGNVDTTYNQKFKDKAKLTAVTSASTAYMELSSLTNEDSAVYYCTRMGTTLEAPLDYWGQGTTVTVSS
VL: QIVLTQSPAILSASPGEKAAMTCSARSSVSYLYWYQQKPGSSPRLLIYDTSNLASGVPSRFIGSGSGTDYSLTISSMEAEDAATYYCQQWSDYPLTFGAGTKLEIK
B9: the binding result in assay [1] is reported as “binds”.
